Source: patent US9950038B2 (THE TRUSTEES OF THE UNIVERSIY OF PENNSYLVANIA, priority 2011, dated 2018)

Assay: general procedure: Fmoc solid-phase peptide synthesis; DCC/HOBt
Details: whole synthesis

GLP-1 (7-36) amide
final HPLC purity: greater than 99%
final purity (method not given) (HPLC): 85% pure
